# Test results: paper PMC7862700
# The other results are listed elsewhere or left out. The exact form of the protein is not confirmed.
# Target: T1, ELF2 (UniProt Q15723)
# T1 sequence: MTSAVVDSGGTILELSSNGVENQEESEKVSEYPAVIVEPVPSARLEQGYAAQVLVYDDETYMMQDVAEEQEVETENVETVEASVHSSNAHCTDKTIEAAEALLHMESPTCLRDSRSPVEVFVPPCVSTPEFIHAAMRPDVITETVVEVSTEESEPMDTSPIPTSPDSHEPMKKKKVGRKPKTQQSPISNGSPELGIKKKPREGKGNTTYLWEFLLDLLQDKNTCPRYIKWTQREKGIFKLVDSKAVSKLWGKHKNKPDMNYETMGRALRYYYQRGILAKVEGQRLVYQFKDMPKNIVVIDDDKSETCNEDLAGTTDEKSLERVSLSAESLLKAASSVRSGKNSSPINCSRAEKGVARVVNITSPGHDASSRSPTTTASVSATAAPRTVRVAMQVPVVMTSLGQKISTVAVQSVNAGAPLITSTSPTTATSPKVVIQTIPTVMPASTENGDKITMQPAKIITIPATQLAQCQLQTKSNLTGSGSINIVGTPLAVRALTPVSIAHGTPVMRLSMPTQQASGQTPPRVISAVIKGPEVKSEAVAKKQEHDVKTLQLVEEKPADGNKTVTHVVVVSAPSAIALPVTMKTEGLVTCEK
# Experiment: DAPPL (digital affinity profiling via proximity ligation, sequencing)
# Conditions: 10 mM Tris-HCl pH 7.5, 50 mM NaCl, 1 mM DTT, 4% glycerol, room temperature, 30 min; GST-TFs on glutathione beads, 16-mer random dsDNA library, 0.1% …; high values mean tight binding; double strand, one strand shown; scale: fold enrichment (6-mer frequency, TF over GST control)
row,Sequence,binding signal
1,CCTTAT,1.54
2,CCCACT,1.36
3,CAACGA,1.03
4,AGCGAA,0.919
5,TCTGCG,1.12
6,TAGAAA,1.03
7,ACTGCC,1.44
8,CAAGAA,1.03
9,CTTACT,1.27
10,GACTTA,0.945
11,TAGACA,0.941
12,CCCTCT,1.3
13,GCAGAA,0.874
14,CTAGAC,0.903
15,CGATGG,1.26
16,TCCACT,1.46
17,CCTATA,1.37
18,GTTCAA,1.11
19,TTGGTT,1.39
20,TTGGCT,1.04

# Taken from above:
# For binding signal, TCCACT reads 1.46
# For binding signal, CAAGAA reads 1.03

# The results go on:

row,Sequence,binding signal
1,CGCGAA,0.96
2,TCTGGA,0.956
3,CTTGAA,1.04
4,TAGGAT,0.99
5,GTTAAG,1.02
6,AGAAGT,1.02
7,TGAATC,0.962
8,CCGTTT,1.5
9,GTAGAA,0.915
10,TGGGTT,1
11,GCTAGA,0.944
12,CTAGGA,0.925
13,CGAAGA,0.76
14,TAATTC,1.52
15,TAGAGA,0.777
16,CTTAAG,1.04
17,ATTCGA,1.33
18,CCTCTG,1.46
19,AGATTA,0.997
20,ACCTAG,0.914
